Results reported in paper PMC10701771.
No constants are given. Whether binding was seen depends on the method and setting. Binding seen in cells or lysates may run through a third protein. Some entries that bind do so weakly or less than the wild type.

Sequences of proteins named here, by UniProt entry; tags and fusion partners are left off.
UniProt Q09472: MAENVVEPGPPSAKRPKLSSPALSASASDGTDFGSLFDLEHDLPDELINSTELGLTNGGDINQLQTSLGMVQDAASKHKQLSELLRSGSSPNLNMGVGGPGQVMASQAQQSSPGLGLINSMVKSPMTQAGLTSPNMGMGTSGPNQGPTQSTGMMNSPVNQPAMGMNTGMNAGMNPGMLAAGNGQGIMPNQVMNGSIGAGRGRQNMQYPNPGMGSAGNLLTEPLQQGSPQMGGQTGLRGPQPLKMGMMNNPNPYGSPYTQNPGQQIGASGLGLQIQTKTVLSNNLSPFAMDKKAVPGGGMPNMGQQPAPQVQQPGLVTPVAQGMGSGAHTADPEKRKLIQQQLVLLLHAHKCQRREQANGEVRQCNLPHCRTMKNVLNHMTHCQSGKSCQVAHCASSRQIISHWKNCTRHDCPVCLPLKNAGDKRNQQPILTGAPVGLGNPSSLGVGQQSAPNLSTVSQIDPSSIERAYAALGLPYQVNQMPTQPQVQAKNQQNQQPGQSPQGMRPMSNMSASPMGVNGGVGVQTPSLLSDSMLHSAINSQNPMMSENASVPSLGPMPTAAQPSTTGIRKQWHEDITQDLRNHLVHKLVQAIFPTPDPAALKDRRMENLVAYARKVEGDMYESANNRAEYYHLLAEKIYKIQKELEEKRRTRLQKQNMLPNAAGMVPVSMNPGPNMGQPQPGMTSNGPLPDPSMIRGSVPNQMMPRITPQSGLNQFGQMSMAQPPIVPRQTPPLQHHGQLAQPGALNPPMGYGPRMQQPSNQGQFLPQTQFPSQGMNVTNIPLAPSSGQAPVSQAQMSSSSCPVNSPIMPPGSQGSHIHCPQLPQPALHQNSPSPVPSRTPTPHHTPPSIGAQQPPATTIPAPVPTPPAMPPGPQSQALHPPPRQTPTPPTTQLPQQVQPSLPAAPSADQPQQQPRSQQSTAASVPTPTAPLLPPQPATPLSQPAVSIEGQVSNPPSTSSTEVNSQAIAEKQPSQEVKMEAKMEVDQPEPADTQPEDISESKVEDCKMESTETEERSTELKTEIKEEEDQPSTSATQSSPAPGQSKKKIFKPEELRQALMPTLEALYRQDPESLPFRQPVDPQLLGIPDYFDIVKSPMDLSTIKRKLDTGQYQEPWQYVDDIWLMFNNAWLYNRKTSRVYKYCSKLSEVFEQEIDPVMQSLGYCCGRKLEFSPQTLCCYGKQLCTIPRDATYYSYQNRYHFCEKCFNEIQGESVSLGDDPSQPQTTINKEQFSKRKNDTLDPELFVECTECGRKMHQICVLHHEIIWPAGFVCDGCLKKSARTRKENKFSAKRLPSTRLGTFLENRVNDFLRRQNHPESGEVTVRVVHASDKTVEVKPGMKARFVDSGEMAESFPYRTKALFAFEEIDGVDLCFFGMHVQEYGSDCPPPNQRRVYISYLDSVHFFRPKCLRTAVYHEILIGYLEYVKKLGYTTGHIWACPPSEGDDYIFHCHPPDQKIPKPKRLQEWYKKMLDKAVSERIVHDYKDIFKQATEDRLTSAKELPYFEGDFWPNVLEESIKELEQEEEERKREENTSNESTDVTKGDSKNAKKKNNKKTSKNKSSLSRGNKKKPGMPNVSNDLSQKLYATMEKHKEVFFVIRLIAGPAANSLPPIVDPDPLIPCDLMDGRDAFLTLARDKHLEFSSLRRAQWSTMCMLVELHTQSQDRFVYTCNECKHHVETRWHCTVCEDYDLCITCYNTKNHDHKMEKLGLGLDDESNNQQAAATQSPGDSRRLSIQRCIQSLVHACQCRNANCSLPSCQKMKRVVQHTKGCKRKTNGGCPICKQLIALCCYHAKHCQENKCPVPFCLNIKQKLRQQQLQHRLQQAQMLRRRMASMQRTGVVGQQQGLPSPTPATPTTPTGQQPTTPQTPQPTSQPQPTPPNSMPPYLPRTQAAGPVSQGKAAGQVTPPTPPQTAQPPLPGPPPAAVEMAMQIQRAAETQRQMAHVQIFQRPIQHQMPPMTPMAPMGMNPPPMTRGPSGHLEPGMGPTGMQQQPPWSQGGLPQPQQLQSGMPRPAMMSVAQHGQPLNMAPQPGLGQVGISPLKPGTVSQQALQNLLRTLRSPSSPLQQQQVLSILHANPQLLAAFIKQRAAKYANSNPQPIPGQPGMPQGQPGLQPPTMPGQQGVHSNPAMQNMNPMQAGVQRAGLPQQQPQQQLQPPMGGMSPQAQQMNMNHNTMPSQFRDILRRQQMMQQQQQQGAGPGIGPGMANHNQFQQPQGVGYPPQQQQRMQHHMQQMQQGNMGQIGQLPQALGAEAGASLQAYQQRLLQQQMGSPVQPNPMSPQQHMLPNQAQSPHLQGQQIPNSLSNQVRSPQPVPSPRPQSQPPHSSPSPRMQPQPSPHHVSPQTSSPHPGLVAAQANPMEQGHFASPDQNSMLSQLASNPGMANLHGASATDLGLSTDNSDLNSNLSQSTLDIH
UniProt Q9Y4X4: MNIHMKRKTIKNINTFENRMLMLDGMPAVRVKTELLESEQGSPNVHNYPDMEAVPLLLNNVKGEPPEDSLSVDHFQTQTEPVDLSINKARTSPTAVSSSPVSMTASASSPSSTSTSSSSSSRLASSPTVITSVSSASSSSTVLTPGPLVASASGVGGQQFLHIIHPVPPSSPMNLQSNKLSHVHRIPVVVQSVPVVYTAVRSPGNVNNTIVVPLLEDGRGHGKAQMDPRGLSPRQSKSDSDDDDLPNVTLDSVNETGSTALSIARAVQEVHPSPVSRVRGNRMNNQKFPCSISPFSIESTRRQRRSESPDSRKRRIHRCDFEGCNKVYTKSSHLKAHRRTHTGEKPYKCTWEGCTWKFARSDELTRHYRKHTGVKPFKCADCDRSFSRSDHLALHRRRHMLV

Target: P300, a histone acetyltransferase (human (endogenous in NCI-H460)) (UniProt Q09472)
Experiment: co-IP; co-IP with P300 antibody in NCI-H460 cells, followed by immunoblotting with the KLF12 antibody; endogenous proteins

binding: binds
Substance: Krüpple-like factor 12 (KLF12) (from UniProt Q9Y4X4 1-402)
